The values below come from publication PMC4207805.

Protein sequences, listed by entry. Tags and fused reporters are not part of them. Lines headed by an entry give the natural chain unless they say otherwise; changes in a name come on top. Residues count along the entry.
UniProt Q07820: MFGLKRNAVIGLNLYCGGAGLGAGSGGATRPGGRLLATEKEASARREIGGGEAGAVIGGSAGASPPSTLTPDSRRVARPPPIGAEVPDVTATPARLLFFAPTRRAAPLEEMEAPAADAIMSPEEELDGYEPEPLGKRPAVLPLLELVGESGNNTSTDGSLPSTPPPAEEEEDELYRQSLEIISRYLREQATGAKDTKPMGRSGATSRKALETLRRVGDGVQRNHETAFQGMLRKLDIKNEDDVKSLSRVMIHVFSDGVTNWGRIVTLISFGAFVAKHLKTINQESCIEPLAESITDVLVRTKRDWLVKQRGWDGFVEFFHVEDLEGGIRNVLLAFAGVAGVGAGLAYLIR
UniProt Q9Y4K3, residues 1-351: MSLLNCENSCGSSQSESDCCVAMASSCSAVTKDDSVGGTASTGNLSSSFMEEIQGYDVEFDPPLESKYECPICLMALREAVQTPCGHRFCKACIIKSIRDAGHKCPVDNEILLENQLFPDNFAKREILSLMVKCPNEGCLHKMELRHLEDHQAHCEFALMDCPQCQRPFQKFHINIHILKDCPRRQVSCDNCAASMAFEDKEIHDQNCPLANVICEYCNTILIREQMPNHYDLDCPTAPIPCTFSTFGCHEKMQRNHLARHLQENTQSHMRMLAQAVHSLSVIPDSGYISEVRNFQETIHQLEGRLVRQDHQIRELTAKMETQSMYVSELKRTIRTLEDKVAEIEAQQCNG
UniProt Q7Z6Z7: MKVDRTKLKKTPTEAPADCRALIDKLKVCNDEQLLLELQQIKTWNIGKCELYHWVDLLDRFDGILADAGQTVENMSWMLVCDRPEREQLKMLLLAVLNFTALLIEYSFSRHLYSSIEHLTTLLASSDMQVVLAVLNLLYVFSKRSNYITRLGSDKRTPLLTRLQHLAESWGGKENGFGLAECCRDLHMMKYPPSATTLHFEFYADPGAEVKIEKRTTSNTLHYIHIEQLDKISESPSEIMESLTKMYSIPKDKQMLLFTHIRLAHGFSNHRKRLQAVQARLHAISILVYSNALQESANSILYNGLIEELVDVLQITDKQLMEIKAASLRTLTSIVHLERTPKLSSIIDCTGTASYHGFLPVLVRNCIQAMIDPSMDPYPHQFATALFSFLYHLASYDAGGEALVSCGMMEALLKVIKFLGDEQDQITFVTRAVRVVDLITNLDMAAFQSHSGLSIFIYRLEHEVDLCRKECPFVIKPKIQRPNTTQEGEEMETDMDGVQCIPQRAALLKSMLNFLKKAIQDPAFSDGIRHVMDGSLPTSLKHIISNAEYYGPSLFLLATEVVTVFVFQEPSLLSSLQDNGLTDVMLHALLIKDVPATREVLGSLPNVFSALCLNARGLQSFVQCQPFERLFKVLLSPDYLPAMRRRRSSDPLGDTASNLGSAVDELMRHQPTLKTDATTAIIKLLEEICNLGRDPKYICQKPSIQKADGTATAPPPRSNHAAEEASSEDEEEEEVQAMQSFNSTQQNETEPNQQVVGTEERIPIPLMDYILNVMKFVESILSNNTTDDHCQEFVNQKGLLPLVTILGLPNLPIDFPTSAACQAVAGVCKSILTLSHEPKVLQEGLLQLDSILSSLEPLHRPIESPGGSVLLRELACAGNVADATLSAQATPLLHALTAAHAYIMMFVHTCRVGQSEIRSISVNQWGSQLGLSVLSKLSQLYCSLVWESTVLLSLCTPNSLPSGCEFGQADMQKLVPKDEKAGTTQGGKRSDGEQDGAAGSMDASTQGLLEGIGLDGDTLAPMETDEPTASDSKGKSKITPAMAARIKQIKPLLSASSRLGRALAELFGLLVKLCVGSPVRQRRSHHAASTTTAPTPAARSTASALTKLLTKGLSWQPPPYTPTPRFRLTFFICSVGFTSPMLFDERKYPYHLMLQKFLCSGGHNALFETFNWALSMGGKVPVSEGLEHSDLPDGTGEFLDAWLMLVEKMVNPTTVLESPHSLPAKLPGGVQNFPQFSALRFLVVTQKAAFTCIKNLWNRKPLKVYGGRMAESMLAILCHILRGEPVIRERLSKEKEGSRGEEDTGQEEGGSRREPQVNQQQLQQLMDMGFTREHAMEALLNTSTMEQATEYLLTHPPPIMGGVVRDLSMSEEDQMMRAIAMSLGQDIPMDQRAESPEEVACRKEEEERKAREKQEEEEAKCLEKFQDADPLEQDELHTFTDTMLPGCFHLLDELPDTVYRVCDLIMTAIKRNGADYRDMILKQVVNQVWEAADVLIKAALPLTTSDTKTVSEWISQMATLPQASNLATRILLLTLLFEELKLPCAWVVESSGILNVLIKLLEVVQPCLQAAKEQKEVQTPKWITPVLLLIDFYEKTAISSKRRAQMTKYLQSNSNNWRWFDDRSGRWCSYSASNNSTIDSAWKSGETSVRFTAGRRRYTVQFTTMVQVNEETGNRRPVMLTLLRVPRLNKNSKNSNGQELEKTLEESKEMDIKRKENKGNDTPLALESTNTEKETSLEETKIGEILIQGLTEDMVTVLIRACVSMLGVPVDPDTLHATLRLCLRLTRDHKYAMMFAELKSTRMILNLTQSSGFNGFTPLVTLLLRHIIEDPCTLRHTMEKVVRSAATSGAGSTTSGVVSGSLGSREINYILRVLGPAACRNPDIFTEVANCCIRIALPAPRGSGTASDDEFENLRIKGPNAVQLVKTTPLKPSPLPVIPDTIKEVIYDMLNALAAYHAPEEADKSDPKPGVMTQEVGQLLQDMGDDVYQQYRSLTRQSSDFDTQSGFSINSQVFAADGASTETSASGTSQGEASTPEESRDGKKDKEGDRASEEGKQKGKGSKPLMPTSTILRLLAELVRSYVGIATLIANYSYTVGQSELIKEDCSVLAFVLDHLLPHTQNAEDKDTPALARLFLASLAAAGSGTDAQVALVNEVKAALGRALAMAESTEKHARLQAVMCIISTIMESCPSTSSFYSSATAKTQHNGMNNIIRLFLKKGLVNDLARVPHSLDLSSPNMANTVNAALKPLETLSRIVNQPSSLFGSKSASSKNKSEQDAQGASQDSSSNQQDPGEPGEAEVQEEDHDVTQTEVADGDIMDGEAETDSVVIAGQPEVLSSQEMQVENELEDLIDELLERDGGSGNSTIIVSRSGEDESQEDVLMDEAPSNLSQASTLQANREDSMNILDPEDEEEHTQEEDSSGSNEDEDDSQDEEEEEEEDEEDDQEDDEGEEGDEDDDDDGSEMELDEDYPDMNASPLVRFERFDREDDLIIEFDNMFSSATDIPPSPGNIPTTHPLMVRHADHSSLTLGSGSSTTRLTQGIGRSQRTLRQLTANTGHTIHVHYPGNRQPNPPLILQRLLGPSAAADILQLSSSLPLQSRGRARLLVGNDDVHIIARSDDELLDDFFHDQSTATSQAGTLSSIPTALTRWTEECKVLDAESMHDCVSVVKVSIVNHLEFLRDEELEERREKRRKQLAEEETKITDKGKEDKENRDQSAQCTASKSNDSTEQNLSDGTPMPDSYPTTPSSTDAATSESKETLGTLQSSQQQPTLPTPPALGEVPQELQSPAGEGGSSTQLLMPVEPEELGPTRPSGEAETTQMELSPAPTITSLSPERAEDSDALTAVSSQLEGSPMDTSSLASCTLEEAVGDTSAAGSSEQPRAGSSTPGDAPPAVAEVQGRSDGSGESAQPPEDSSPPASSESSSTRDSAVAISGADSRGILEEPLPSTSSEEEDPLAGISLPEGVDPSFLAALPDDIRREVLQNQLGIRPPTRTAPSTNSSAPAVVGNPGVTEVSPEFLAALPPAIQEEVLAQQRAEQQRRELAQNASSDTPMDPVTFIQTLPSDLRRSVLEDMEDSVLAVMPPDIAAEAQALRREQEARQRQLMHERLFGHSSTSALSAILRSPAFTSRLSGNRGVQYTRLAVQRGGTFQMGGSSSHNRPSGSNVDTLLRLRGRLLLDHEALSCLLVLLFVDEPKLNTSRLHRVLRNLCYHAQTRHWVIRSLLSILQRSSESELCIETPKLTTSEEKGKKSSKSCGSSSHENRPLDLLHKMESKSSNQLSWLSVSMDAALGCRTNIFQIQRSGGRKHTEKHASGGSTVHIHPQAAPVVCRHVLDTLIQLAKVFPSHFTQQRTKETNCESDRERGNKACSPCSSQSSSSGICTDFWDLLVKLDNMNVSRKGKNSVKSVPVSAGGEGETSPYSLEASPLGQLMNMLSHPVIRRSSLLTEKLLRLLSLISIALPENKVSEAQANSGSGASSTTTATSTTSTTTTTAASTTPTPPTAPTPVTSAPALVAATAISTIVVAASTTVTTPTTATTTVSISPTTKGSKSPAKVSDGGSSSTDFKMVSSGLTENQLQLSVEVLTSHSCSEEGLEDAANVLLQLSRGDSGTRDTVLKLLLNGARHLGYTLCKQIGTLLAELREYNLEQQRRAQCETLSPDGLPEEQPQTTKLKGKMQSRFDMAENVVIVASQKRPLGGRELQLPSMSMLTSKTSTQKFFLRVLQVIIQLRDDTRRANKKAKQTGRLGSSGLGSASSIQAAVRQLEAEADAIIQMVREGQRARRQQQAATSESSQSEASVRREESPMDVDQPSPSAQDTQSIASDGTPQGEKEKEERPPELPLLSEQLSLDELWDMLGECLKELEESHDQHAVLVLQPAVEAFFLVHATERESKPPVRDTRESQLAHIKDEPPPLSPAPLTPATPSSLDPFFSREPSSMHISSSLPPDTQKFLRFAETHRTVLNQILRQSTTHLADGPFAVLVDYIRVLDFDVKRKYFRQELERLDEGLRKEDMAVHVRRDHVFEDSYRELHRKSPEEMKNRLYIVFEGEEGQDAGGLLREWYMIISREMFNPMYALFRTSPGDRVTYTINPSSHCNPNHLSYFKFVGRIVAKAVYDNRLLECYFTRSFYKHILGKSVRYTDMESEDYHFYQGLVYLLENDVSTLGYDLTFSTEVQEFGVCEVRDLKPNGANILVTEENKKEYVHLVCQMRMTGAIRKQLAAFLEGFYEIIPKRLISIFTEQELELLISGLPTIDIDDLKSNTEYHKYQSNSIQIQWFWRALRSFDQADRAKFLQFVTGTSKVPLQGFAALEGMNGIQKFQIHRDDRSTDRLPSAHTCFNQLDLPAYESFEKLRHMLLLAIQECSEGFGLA

No constants are given. Whether binding was seen depends on the method and setting. In cells and extracts the contact can be indirect. Some entries that bind do so weakly or less than the wild type. For part of these data: Sequences can lack the tags named with a protein.

One assay concerns the target HTLV-1 Tax (HTLV-1) (UniProt P03409). Description: co-IP; Tax immunoprecipitates from RIPA lysates of 293T cells transfected with Tax and Flag-tagged TRAF proteins or TRAF6 deletion mutants; anti-Flag blot.
The next assay concerns the target Flag-MCL-1 (human) (UniProt Q07820). Description: co-IP; lysates of 293T cells transfected with Flag-MCL-1 and Flag-MULE, HA-FBW7 or HA-βTRCP, with or without Tax; untreated or etoposide (10 µM, 6 h) with MG-132 (10 µM).
Assay [1] has as its target HTLV-1 Tax (HTLV-1), P03409. As to the kind of experiment: co-IP; Tax immunoprecipitates from RIPA lysates of 293T cells transfected with Tax and Flag-tagged TRAF proteins or TRAF6 deletion mutants; anti-Flag blot. As to conditions: remark: other sources report otherwise.

As for “Flag-TRAF6 ΔTRAF-C (1–351 residues) (from UniProt Q9Y4K3 1-351) (domain or fragment)”, the binding entry with HTLV-1 Tax (HTLV-1) is given as “no binding”.
Turning to “Flag-MULE (from UniProt Q7Z6Z7 1-4374) (enzyme)”, the binding entry in the assay with Flag-MCL-1 (human) is listed as “binds”.

B1: Flag-TRAF2, Q12933 1-501 (protein)
chain: MAAASVTPPGSLELLQPGFSKTLLGTKLEAKYLCSACRNVLRRPFQAQCGHRYCSFCLASILSSGPQNCAACVHEGIYEEGISILESSSAFPDNAARREVESLPAVCPSDGCTWKGTLKEYESCHEGRCPLMLTECPACKGLVRLGEKERHLEHECPERSLSCRHCRAPCCGADVKAHHEVCPKFPLTCDGCGKKKIPREKFQDHVKTCGKCRVPCRFHAIGCLETVEGEKQQEHEVQWLREHLAMLLSSVLEAKPLLGDQSHAGSELLQRCESLEKKTATFENIVCVLNREVERVAMTAEACSRQHRLDQDKIEALSSKVQQLERSIGLKDLAMADLEQKVLEMEASTYDGVFIWKISDFARKRQEAVAGRIPAIFSPAFYTSRYGYKMCLRIYLNGDGTGRGTHLSLFFVVMKGPNDALLRWPFNQKVTLMLLDQNNREHVIDAFRPDVTSSSFQRPVNDMNIASGCPLFCPVSKMEAKNSYVRDDAIFIKAIVDLTGL
For the molecule B1, in assay [1], the binding result is recorded as “no binding”.
